Paper PMC4764573

Sequences of proteins named here, by UniProt entry; tags and fusion partners are left off.
UniProt Q92688: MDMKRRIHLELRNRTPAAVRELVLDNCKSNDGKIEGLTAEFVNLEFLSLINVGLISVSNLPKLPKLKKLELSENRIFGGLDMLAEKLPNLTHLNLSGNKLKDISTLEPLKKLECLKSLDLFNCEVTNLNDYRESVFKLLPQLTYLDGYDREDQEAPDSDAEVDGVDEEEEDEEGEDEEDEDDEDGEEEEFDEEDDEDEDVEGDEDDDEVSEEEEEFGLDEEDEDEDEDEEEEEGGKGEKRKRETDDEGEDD
UniProt P50579: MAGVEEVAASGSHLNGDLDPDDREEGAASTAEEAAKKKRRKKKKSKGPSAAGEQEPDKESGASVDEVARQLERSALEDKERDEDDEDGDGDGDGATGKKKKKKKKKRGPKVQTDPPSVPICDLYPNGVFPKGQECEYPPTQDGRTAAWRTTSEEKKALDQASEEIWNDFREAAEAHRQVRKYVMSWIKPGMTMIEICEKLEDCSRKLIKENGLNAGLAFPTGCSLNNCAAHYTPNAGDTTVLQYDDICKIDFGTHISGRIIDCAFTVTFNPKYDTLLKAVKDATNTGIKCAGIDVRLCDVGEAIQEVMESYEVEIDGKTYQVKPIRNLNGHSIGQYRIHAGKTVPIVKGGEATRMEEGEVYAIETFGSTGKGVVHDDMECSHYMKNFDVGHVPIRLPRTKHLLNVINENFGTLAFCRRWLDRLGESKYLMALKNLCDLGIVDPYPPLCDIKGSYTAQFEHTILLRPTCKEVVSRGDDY
UniProt Q9UHD2: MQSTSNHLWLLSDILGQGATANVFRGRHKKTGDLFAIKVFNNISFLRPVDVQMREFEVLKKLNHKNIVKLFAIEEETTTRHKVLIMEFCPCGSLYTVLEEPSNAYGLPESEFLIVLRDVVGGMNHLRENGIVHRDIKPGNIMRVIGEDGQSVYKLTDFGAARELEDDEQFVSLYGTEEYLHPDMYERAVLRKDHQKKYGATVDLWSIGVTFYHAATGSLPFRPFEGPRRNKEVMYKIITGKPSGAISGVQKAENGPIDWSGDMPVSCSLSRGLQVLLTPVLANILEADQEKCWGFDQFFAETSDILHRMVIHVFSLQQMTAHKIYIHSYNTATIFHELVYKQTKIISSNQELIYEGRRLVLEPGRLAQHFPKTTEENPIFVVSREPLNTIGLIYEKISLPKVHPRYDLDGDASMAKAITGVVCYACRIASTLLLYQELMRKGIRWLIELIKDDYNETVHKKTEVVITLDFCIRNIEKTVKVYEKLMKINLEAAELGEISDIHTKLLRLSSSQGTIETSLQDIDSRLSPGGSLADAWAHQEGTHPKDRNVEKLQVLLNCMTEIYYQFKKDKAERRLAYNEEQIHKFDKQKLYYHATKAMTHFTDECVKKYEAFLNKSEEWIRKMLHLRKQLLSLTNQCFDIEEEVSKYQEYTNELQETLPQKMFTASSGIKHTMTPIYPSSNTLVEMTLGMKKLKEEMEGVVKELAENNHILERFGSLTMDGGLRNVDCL
UniProt P46108: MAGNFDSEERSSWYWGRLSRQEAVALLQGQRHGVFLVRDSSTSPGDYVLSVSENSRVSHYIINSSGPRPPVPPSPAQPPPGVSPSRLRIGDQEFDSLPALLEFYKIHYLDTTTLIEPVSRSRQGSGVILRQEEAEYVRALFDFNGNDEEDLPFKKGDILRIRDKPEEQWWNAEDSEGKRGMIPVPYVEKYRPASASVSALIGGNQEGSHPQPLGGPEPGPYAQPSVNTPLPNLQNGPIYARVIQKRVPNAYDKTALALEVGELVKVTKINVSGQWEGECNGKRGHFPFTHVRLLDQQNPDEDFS
UniProt O75832: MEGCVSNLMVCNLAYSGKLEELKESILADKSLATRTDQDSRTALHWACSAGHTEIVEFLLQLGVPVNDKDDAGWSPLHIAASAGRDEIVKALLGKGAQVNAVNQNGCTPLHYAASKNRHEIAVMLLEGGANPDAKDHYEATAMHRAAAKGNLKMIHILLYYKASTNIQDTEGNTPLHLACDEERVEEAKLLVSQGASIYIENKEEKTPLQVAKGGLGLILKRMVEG
UniProt Q9NT62: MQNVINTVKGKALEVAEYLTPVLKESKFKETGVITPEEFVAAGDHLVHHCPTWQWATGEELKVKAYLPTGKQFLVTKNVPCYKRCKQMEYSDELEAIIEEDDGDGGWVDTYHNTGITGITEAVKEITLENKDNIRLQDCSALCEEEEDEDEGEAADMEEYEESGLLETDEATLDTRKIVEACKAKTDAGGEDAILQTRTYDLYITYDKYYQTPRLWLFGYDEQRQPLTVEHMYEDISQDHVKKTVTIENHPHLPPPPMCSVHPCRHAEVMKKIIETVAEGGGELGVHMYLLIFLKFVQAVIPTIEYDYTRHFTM
UniProt P38936: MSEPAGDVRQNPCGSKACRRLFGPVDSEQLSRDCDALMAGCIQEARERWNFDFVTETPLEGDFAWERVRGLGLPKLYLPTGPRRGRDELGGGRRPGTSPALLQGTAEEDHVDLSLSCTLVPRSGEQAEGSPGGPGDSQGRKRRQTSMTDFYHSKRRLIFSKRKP
UniProt P51617: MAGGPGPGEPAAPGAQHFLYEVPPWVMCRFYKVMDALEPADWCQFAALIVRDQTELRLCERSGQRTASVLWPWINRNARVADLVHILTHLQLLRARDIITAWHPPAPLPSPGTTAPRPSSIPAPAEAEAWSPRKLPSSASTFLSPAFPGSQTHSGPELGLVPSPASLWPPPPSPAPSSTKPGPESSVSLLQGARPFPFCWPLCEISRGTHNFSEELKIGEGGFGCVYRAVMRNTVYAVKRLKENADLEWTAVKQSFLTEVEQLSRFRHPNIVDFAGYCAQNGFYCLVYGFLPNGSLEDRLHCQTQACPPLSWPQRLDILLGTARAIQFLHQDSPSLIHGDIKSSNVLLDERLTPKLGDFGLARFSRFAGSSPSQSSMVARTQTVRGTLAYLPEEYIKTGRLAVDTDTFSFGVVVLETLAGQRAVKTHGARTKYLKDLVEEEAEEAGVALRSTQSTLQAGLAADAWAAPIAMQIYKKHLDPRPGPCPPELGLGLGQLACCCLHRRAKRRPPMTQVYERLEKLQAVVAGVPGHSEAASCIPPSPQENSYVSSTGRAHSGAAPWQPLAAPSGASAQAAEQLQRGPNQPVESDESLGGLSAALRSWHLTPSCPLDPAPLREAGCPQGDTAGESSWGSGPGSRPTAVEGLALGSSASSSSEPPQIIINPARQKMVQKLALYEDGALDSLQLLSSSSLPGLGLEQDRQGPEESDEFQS
UniProt P61011: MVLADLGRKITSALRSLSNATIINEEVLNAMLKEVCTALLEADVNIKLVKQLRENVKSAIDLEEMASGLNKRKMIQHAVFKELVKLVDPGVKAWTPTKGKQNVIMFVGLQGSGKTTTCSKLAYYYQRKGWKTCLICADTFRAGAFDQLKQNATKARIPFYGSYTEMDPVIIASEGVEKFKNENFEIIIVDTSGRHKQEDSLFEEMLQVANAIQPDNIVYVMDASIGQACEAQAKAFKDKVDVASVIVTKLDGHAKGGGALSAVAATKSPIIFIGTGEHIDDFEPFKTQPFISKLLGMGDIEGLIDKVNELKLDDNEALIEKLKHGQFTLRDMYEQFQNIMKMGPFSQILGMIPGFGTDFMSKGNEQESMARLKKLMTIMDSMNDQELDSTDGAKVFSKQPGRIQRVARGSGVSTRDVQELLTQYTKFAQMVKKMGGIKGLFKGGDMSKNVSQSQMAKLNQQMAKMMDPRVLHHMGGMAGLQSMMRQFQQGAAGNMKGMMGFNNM

Molecular target: mmCRM1 (mouse CRM1), biotinylated version carrying an Avi-tag (mouse) (UniProt Q6P5F9)
Assay: affinity purification with mass spectrometry; as a1, with cytosolic HeLa S100 extract on immobilised CRM1 (taken as mmCRM1), with 5 μM RanGTP (hsRanQ69L^5-180); only the target purified

| Substance | binding |
| --- | --- |
| Acidic leucine-rich nuclear phosphoprotein 32 family member B (HeLa extract) (from UniProt Q92688 1-251) | no binding |
| Raf-1 (HeLa extract) (from UniProt P04049 1-648) (enzyme) | binds |
| co-translational methionine aminopeptidase MetAP2 (HeLa extract) (from UniProt P50579 1-478) (enzyme) | binds |
| tank-binding kinase 1 (HeLa extract) (from UniProt Q9UHD2 1-729) (enzyme) | binds |
| Adapter molecule CRK (HeLa extract) (from UniProt P46108 1-304) | no binding |
| 26S proteasome non-ATPase regulatory subunit 10 (HeLa extract) (from UniProt O75832 1-226) | no binding |

Next, values leading:

| binding | Substance |
| --- | --- |
| binds | ATG8-conjugating enzyme ATG3 (HeLa extract) (from UniProt Q9NT62 1-314) |
| no binding | Cyclin-dependent kinase inhibitor 1 (HeLa extract) (from UniProt P38936 1-164) |
| binds | interleukin-1 receptor-associated kinase 1 (HeLa extract) (from UniProt P51617 1-712) (enzyme) |
| binds | SRP54 (HeLa extract) (from UniProt P61011 1-504) |

Molecular target: mmCRM1 (mouse CRM1), biotinylated version carrying an Avi-tag (mouse) (UniProt Q6P5F9)
Assay: affinity purification with mass spectrometry; 500 pmoles biotinylated Avi-tagged CRM1 (taken as mmCRM1) on 20 μl streptavidin agarose; 1 ml Xenopus laevis oocyte extract (diluted 1:5, depleted of nuclear transport receptors on Phenyl-Sepharose, RNAse A treated) with 5 μM RanGTP (hsRanQ69L^5-180); 3 hr at 4°C; 20 mM HEPES/ NaOH pH 7.5, 90 mM KAc, 2 mM MgOAc, 250 mM Sucrose, 5 mM DTT; minus CRM1 and minus RanGTP controls; only the target purified

| binding | Substance |
| --- | --- |
| binds weakly | Arp2/3-1b of the Xenopus oocyte extract (from UniProt Q6GNU1 1-369) |

Results are given in words; binding and its absence hold for the method and conditions named. Binding seen in cells or lysates may run through a third protein. A yes stands for co-enrichment or nearness to the bait. Other partners may have been found. For some assays here: A no says only that the protein was not detected with the bait.
